Reference: publication PMC4480908
These are yes or no findings as the source states them, for the method shown. In cells and extracts the contact can be indirect.

Target: EZH2 (human (endogenous in Caco-2 and HuVEC)), Q15910
Assay: co-IP; Classic IP kit (Pierce); 1000 ug pre-cleared total cell lysate of Caco-2 cells or HuVECs incubated overnight at 4 °C with 10 ug anti-SIRT1 (Abcam ab7343) or anti-EZH2 (R&D AF4767) antibody; captured on protein A/G Sepharose; Western blot for SIRT1 or EZH2; both directions, both cell lines
Details: remark: other sources report otherwise

B1: SIRT1, Q96EB6 1-747 (protein)
chain: MADEAALALQPGGSPSAAGADREAASSPAGEPLRKRPRRDGPGLERSPGEPGGAAPEREVPAAARGCPGAAAAALWREAEAEAAAAGGEQEAQATAAAGEGDNGPGLQGPSREPPLADNLYDEDDDDEGEEEEEAAAAAIGYRDNLLFGDEIITNGFHSCESDEEDRASHASSSDWTPRPRIGPYTFVQQHLMIGTDPRTILKDLLPETIPPPELDDMTLWQIVINILSEPPKRKKRKDINTIEDAVKLLQECKKIIVLTGAGVSVSCGIPDFRSRDGIYARLAVDFPDLPDPQAMFDIEYFRKDPRPFFKFAKEIYPGQFQPSLCHKFIALSDKEGKLLRNYTQNIDTLEQVAGIQRIIQCHGSFATASCLICKYKVDCEAVRGDIFNQVVPRCPRCPADEPLAIMKPEIVFFGENLPEQFHRAMKYDKDEVDLLIVIGSSLKVRPVALIPSSIPHEVPQILINREPLPHLHFDVELLGDCDVIINELCHRLGGEYAKLCCNPVKLSEITEKPPRTQKELAYLSELPPTPLHVSEDSSSPERTSPPDSSVIVTLLDQAAKSNDDLDVSESKGCMEEKPQEVQTSRNVESIAEQMENPDLKNVGSSTGEKNERTSVAGTVRKCWPNRVAKEQISRRLDGNQYLFLPPNRYIFHGAEVYSDSEDDVLSSSSCGSNSDSGTCQSPSLEEPMEDESEIEEFYNGLEDEPDVPERAGGAGFGTDGDDQEAINEAISVKQEVTDMNYPSNKS
In the case of B1, the binding is reported as “no binding”.
